Laboratory results published in PMC12240075.
Results are given in words; binding and its absence hold for the method and conditions named. In cells and extracts the contact can be indirect. Some results given as binding are weak or reduced against the parent protein; the word gives no strength. Tags and fused reporters may be left off the sequences shown.

By UniProt entry, the sequences of proteins in these tests, tags left out.
UniProt P11142: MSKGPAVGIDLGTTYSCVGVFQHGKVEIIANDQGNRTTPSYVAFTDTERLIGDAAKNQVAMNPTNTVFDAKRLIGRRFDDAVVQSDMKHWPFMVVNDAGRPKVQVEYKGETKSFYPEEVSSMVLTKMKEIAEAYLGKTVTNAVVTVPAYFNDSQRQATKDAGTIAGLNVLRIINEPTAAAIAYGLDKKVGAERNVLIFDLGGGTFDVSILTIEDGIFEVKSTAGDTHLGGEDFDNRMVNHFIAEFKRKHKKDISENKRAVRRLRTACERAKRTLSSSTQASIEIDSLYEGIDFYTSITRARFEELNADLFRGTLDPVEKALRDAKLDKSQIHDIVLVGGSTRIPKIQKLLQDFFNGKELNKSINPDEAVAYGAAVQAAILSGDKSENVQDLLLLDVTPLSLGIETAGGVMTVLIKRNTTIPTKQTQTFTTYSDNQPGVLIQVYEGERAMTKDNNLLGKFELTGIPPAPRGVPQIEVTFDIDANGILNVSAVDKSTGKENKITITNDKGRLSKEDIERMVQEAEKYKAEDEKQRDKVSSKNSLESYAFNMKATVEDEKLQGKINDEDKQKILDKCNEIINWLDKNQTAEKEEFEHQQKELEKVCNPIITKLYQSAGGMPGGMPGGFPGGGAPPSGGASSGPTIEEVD

How the values were obtained:
[1] = biological target: T1, HA-OGA-Q356A/E360A (UniProt O60502); assay: co-IP; both proteins tagged and overproduced in transfected cells (HEK293T); immunoprecipitation by the tag, immunoblot; lysis buffer 200 mM NaCl, 1 mM EDTA, 20 mM Tris (pH 7.5), 0.5% NP-40
T1 sequence: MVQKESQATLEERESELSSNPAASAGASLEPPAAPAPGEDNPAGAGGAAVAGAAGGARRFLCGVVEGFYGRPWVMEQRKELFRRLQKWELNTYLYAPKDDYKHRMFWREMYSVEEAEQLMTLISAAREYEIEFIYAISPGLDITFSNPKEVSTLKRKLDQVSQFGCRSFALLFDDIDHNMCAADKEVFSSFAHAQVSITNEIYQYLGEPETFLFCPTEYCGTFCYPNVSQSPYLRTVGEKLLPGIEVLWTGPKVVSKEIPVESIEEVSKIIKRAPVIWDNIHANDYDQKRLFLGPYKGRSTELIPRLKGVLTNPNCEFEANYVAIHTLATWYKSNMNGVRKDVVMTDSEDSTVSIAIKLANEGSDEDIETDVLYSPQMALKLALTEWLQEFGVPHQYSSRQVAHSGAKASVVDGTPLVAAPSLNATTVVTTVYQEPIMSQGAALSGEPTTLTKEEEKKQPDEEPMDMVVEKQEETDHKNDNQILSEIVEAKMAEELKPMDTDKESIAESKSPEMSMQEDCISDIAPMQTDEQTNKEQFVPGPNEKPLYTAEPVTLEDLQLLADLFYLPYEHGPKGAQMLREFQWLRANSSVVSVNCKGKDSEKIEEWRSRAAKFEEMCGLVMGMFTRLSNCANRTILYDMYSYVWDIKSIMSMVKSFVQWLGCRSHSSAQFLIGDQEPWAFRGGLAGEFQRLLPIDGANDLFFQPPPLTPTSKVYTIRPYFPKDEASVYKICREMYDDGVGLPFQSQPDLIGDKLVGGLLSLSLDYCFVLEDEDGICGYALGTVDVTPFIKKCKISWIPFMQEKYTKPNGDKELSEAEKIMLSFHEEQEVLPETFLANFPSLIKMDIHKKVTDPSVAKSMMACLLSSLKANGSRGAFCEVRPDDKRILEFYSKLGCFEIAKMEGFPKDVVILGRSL

[2] = biological target: T2, HA-YEATS2-K592R (UniProt Q9ULM3); assay: as above
T2 sequence: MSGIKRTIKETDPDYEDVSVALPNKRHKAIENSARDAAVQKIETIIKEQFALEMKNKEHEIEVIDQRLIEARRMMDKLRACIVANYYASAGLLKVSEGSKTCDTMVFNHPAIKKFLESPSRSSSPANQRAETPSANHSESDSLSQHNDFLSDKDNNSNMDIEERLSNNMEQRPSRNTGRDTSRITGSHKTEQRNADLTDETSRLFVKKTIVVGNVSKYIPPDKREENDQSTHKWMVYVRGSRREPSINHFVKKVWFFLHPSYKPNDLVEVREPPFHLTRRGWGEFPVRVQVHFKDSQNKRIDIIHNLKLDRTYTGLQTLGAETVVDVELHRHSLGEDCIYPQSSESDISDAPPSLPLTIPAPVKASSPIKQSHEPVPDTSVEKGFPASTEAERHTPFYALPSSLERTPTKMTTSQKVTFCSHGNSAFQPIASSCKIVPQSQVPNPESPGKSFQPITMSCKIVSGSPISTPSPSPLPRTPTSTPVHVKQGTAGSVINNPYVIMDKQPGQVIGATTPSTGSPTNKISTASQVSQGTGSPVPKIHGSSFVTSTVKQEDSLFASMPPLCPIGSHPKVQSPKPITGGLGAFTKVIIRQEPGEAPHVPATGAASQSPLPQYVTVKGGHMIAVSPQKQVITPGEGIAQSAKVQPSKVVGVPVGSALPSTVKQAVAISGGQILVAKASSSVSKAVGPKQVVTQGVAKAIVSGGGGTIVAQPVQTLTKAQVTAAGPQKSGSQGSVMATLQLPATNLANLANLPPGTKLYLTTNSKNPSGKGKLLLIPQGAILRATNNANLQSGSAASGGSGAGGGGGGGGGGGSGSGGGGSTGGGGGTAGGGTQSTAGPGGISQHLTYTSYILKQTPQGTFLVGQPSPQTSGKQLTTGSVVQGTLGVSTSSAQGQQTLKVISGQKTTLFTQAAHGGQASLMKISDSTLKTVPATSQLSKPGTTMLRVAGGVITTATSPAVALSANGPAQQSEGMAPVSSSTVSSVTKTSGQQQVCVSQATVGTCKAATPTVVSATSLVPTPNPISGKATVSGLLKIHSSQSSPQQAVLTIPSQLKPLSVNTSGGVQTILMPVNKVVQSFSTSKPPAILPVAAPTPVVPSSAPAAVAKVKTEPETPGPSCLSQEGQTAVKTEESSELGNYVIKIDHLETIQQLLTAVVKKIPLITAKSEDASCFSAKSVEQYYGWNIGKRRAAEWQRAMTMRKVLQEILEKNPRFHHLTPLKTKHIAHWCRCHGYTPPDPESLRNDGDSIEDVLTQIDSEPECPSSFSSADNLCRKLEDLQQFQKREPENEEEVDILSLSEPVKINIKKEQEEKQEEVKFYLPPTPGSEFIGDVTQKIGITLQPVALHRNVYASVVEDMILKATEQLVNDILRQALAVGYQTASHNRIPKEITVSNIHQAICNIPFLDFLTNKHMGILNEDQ

binding [1]: binds
binding [2]: binds
Substance: Flag-HSC70 (from UniProt P11142 1-646)
